Test results published in paper doi:10.1101/2024.06.06.597842.
These are yes or no findings as the source states them, for the method shown. In cells and extracts the contact can be indirect. Some results given as binding are weak or reduced against the parent protein; the word gives no strength. For some of these results: Tags and fused reporters may be left off the sequences shown.

The chains behind the UniProt entries cited, without tags or fusion partners.
UniProt P23678: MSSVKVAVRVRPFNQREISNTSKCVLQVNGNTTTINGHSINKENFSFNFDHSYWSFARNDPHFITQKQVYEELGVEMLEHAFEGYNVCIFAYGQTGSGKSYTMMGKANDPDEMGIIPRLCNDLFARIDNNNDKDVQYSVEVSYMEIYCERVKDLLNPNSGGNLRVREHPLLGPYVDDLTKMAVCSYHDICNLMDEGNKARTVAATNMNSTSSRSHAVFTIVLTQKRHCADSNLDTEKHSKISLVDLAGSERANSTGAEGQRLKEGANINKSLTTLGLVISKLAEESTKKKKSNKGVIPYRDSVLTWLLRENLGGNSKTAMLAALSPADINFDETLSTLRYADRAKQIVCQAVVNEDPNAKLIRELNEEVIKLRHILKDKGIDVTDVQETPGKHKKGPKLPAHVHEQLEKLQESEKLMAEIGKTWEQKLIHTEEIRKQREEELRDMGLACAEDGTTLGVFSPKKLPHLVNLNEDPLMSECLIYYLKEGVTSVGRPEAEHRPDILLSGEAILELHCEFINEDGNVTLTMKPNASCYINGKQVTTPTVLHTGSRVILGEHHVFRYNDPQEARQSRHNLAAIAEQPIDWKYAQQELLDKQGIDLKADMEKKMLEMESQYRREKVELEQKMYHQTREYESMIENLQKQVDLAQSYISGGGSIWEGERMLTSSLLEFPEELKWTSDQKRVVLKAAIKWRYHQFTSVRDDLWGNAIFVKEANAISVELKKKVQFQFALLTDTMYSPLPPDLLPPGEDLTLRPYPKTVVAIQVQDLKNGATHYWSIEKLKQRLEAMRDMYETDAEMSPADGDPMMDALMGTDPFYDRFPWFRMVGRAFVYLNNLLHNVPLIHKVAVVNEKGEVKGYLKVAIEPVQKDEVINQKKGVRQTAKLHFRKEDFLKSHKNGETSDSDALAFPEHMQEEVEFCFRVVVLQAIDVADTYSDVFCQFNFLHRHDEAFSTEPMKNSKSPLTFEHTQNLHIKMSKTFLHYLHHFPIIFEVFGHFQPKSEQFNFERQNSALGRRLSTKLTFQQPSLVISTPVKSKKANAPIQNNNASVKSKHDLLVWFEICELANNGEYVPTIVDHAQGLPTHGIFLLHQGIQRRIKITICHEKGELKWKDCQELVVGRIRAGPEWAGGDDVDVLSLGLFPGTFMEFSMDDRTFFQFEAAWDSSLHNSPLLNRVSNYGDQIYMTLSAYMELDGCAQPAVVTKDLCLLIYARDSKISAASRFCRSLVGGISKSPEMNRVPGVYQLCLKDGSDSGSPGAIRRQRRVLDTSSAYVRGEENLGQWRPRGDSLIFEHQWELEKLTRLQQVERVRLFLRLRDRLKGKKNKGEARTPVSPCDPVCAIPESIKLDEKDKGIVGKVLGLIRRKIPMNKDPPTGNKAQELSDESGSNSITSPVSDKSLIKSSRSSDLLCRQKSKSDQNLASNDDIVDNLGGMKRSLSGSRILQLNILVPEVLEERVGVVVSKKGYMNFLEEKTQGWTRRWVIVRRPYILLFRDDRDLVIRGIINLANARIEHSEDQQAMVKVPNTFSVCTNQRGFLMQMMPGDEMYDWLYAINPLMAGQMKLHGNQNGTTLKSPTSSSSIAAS

Experiments:
[1] = molecular target: T1, MEC-17::VC155 (C. elegans) (UniProt O45100); assay: split reporter
T1 sequence: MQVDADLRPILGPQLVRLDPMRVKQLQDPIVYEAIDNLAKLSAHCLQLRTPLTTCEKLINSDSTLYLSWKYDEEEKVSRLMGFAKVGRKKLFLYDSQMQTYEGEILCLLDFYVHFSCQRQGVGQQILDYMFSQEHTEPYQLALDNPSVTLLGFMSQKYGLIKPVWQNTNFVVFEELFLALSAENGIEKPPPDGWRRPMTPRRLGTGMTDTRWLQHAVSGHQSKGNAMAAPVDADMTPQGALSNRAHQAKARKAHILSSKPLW

[2] = molecular target: T2, UNC-17::VC155 (C. elegans) (UniProt P34711); assay: split reporter
T2 sequence: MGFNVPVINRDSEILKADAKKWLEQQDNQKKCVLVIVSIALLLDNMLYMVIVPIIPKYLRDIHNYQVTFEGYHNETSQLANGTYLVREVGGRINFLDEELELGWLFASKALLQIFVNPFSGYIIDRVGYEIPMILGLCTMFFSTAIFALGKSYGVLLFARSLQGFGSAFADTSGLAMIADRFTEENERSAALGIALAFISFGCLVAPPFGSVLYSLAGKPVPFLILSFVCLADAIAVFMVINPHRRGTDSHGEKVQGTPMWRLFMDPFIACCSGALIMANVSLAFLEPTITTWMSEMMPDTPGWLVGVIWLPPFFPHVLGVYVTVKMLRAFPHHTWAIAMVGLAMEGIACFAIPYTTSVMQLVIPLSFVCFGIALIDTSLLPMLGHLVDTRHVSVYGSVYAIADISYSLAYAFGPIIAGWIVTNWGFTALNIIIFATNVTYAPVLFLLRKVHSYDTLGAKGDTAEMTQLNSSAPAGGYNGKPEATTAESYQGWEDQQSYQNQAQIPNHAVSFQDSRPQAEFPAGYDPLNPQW

UNC-17::GFP (C. elegans) = molecular target: T3, UNC-17::GFP (C. elegans) (UniProt P34711); assay: co-IP
T3 sequence: T2 sequence

MEC-17::GFP (C. elegans) = molecular target: T4, MEC-17::GFP (C. elegans) (UniProt O45100); assay: co-IP
T4 sequence: T1 sequence

binding [1] | binding [2] | binding (UNC-17::GFP (C. elegans)) | binding (MEC-17::GFP (C. elegans)) | Substance
binds | binds | – | – | UNC-104::VN173 (from UniProt P23678 1-1584)
– | – | binds | binds | UNC-104::mRFP (from UniProt P23678 1-1584)
